This is one part of the list.

Amino acid sequences for entries named in this document (tags omitted). A change or cut given only in a name is not applied to a line headed by its entry.
UniProt Q99575: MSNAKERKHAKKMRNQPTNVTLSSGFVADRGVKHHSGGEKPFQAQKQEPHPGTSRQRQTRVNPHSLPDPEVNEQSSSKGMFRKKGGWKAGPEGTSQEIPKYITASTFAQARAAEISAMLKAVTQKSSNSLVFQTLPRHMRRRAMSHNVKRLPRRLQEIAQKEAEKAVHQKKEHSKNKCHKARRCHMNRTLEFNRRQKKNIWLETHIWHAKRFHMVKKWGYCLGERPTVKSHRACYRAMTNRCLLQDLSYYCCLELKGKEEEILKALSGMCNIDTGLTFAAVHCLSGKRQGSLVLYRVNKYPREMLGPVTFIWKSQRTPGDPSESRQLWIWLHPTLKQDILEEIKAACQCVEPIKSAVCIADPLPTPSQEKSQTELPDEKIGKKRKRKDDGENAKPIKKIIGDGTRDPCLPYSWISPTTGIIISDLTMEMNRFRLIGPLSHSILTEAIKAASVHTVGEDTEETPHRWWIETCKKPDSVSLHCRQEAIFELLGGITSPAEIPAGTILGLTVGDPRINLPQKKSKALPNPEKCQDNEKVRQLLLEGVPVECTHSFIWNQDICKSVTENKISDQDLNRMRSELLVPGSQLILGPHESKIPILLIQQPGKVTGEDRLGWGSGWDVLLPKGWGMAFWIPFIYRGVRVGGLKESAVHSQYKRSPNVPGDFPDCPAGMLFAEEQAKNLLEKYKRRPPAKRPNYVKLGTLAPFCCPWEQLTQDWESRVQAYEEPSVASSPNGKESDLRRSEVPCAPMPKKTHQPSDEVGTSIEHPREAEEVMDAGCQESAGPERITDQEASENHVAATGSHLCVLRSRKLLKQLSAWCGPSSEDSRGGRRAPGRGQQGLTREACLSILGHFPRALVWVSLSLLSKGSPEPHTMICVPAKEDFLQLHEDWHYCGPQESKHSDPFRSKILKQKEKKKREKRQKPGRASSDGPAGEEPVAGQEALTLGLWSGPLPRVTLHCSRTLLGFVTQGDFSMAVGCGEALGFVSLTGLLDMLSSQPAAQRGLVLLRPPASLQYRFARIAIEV
UniProt Q9UIW2: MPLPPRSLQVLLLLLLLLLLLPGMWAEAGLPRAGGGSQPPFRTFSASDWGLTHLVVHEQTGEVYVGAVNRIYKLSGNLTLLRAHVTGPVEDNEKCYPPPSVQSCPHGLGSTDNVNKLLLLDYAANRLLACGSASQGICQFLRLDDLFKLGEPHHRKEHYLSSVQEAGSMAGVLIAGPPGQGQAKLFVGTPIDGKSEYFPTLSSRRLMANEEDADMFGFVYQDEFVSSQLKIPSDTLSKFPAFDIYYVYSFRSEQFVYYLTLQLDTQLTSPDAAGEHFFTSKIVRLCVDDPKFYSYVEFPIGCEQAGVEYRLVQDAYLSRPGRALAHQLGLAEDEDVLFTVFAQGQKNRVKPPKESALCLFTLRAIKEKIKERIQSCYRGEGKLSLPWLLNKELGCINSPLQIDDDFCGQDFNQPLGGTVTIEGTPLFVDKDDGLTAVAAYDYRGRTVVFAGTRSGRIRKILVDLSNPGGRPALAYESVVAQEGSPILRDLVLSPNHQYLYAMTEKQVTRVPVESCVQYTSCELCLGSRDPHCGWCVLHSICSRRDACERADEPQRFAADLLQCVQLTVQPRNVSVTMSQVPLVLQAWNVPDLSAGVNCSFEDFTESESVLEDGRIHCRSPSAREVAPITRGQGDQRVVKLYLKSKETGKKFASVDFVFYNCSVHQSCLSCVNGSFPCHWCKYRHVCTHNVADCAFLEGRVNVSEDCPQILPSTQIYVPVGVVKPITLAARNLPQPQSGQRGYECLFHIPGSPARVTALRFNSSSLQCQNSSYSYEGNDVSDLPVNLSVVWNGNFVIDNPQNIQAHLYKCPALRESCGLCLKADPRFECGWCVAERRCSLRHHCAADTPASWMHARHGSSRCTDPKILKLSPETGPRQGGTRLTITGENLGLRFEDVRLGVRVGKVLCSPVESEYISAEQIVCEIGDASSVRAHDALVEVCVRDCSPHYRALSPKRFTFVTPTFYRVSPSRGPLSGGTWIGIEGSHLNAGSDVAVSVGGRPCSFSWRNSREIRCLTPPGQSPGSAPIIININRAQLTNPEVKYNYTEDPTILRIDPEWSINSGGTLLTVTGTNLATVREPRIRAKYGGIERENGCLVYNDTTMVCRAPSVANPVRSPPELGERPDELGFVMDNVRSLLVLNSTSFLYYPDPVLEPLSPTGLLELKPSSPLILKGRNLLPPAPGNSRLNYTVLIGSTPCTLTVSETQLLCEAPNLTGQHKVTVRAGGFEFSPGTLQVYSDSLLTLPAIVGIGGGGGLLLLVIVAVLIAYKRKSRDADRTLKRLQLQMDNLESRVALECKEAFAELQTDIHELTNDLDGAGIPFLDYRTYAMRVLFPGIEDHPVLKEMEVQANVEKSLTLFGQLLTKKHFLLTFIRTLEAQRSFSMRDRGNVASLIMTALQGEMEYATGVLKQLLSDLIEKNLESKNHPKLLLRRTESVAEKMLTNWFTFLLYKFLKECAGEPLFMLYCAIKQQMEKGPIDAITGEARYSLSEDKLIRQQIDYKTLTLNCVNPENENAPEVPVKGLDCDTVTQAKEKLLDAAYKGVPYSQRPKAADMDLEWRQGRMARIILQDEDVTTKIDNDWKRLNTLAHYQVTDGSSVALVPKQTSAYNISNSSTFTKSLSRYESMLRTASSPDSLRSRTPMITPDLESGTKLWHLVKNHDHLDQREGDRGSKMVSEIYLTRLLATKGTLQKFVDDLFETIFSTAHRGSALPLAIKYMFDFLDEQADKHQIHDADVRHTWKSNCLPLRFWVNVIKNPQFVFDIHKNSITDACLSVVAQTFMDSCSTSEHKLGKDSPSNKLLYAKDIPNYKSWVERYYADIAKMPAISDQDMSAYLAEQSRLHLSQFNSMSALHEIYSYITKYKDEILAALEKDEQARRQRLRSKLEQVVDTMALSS
UniProt O15031: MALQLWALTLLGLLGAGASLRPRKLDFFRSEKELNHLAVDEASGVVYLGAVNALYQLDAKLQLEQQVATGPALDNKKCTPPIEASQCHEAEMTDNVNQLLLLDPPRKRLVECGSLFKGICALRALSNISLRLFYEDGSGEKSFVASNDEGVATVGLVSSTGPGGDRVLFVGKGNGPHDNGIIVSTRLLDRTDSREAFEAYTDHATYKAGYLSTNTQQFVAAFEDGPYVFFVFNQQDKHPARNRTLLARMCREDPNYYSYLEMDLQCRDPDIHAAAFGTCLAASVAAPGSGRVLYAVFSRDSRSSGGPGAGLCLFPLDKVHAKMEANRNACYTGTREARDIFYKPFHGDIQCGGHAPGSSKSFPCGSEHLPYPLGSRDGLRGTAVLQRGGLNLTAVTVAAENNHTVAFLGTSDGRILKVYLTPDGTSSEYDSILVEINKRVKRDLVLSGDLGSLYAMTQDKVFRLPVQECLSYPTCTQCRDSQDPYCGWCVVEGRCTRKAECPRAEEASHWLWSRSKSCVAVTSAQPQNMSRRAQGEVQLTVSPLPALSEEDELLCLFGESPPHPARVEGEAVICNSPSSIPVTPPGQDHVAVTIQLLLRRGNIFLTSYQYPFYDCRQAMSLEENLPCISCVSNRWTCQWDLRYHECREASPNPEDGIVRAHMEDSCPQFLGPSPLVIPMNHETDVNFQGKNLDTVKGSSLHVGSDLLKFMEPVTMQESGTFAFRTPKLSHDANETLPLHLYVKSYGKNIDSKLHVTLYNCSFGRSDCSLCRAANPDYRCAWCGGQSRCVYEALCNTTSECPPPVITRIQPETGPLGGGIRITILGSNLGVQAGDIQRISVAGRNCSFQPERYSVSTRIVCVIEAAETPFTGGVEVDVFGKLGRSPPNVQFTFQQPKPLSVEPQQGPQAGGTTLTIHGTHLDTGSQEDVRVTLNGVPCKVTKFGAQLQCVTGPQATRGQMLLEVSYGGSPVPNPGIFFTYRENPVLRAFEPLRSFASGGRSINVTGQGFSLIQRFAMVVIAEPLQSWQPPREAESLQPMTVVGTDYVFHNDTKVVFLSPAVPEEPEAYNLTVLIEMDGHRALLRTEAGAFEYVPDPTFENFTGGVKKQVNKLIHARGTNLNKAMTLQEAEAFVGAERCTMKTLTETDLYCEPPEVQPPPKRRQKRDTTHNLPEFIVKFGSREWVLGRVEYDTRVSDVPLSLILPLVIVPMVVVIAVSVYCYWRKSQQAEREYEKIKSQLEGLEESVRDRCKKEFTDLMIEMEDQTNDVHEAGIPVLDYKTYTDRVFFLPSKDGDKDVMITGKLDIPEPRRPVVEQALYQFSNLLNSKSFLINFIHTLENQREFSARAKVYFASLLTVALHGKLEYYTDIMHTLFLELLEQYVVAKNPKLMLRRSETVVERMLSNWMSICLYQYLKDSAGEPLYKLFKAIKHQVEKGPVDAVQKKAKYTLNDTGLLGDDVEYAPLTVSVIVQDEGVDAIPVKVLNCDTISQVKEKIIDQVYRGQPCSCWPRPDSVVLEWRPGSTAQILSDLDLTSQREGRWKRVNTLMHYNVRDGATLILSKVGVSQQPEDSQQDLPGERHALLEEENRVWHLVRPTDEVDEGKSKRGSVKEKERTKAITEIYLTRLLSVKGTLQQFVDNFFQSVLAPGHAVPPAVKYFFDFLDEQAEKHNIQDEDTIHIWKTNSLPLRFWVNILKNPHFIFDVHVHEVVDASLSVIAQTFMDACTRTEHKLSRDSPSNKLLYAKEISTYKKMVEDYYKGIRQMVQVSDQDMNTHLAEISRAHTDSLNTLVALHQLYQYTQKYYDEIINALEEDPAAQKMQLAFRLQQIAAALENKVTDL
UniProt Q15054: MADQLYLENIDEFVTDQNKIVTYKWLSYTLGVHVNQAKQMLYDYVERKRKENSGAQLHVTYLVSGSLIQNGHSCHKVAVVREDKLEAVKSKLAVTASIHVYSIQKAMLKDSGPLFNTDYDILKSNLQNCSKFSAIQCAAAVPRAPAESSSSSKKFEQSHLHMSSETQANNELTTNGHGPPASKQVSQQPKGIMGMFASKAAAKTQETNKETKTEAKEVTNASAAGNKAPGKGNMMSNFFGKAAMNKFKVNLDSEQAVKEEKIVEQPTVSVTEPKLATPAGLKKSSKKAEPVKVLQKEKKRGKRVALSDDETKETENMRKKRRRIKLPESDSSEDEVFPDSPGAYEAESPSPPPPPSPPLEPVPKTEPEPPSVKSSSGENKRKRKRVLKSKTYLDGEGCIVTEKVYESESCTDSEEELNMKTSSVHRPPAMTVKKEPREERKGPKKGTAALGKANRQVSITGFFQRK
UniProt O15305: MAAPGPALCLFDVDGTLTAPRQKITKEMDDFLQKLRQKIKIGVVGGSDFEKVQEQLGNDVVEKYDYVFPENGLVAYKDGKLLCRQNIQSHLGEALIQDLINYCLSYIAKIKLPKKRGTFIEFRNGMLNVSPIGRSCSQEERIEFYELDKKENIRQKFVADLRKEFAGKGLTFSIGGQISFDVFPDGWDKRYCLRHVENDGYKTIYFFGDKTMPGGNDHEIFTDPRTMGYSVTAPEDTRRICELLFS
UniProt Q96AD5: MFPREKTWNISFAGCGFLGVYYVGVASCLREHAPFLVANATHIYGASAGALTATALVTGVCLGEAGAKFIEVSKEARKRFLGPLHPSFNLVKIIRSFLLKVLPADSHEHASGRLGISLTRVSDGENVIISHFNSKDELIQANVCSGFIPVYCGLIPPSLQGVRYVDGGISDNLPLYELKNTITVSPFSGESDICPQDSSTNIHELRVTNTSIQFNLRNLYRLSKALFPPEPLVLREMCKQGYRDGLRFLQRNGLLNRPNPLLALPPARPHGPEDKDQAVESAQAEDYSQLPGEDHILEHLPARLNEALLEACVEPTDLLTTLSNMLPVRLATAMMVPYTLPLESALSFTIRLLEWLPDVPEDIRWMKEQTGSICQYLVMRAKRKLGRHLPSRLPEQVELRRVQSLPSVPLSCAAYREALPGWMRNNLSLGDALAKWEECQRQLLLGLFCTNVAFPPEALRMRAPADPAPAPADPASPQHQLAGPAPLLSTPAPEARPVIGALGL
UniProt Q14181: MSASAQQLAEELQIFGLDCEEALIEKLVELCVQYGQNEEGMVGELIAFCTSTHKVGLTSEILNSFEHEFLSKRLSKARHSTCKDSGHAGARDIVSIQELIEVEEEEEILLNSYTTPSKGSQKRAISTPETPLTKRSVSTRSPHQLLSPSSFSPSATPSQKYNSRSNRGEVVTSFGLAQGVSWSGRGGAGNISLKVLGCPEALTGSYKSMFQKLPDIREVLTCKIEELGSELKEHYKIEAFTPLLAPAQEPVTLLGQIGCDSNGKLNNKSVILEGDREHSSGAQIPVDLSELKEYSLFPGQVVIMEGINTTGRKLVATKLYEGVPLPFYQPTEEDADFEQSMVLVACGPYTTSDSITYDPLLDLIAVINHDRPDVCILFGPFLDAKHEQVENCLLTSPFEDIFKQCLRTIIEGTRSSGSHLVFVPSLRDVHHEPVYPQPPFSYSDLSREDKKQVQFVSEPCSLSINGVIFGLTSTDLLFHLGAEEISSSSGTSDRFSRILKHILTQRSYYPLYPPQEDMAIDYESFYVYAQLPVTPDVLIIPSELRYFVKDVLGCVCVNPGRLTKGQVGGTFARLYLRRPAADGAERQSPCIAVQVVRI

Drawing on the supplement of paper PMC10849652, this text covers log2 fold change for 23 targets.

Compound in this experiment: C1=CC=C2C(=C1)C3=NNC4=CC=CC(=C43)C2=O
As to the kind of experiment: log2 fold change, soluble protein after heating vs DMSO (PISA); higher = thermal stabilisation; K562 lysate, 10 uM; active = over 0.2 and 3.5 SD of the protein, either way, in both replicates (recomputed). The procedure, abridged: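 Dounce homogenisation of K562 pellets in PBS pH 7.4 with 1 mM MgCl2 produced a crude extract, used at 1 mg/mL protein. Exposure to 10 μM compound lasted 30 min, and aliquots were then heated for 3 min across 48°C-58°C, pooled and brought to 0.5% NP-40 at 4°C. The supernatant after 21,000xg for 90 min was quantified by TMTpro 16plex LC-MS/MS with channel sums equalised. Duplicate values are given as log-two fold change in thermal stability relative to solvent controls.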
On to POLD1 (UniProt P28340), for which the log2 fold change is inactive: -0.029.
To POLR1D (UniProt P0DPB6) belongs inactive: -0.021; to POLR2G (UniProt P62487), inactive: 0.036.
Regarding PNKD isoform 2 (UniProt Q8N490), the log2 fold change is inactive: 0.038.
The figure for POP1 (UniProt Q99575) is inactive: 0.031; for POLR2B (UniProt P30876) it is inactive: -0.024; for POGLUT2 (UniProt Q6UW63) it is inactive: -0.049.
The figure for PLXNA1 (UniProt Q9UIW2) is inactive: -0.021; for PPIB (UniProt P23284) it is inactive: -0.003.
To POLR1B isoform 3 (UniProt Q9H9Y6) belongs inactive: -0.046; to PMF1 (UniProt Q6P1K2), inactive: 0.008.
For PLXNB2 (UniProt O15031), the log2 fold change is inactive: -0.018.
To PNKD (UniProt Q8N490) belongs inactive: -0.211; to PPFIA2 (UniProt O75334), inactive: -0.006; to POP5 (UniProt Q969H6), inactive: 0.081.
The figure for POLR2H (UniProt P52434) is inactive: -0.017.
To POLD3 (UniProt Q15054) belongs inactive: -0.048.
With PMM2 (UniProt O15305), the log2 fold change was inactive: 0.011.
As for POLD2 (UniProt P49005), the log2 fold change is inactive: -0.019.
As for PNPLA2 (UniProt Q96AD5), the log2 fold change was inactive: 0.012.
As for PPFIA1 (UniProt Q13136), the log2 fold change was inactive: -0.048.
The figure for POLA2 (UniProt Q14181) is inactive: 0.001; for POT1 (UniProt Q9NUX5) it is inactive: -0.052.
